# Hit rate of the full screen: of about 140,000 compounds, about 4,300 (3.1%) were called active. The shares of active, inactive and inconclusive entries below differ from those in the screen.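 How the source made its calls: active means readout at or below -70, meaning at least 70% loss of cells showing the perinucleolar compartment, a nuclear body marking cancer cells; inconclusive means readout between -30 and a set limit; inactive means the rest.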
# Experiment: High Content Assay for Compounds that inhibit the Assembly of the Perinucleolar Compartment;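 further: plate controls were DMSO wells for no effect and camptothecin positive control wells for full effect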
# Settings: PC3M PTB-GFP, PNC prevalence imaging, 16 h; at 10 µM; hits give low values
# Procedure, shortened: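 Read-out is percentage of cells bearing a perinucleolar compartment, from automated 20x imaging of fixed, Hoechst-stained PC3M PTB-GFP cells. Cells were seeded 4 h, then exposed 16 h to compound (23 nl of library stock) in duplicate plates.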
row,Structure (SMILES),"activity change (PNC), negative = inhibition"
1,COc1ccc(S(=O)(=O)N(C)CC(=O)Nc2c(F)cccc2F)cc1,active: -103%
2,CNC(=O)N(C1=NCC(C)(C)S1)c1ccc(F)c(Cl)c1,inactive: -9.55%
3,COc1cccc(/C=N/NC(=O)CC2C(=O)NN=C2C)c1OC (stereo not drawn),inactive: 9.24%
4,CCOC(=O)c1c(C)nc2sc3c(=O)n(-c4ccc(OC)cc4)nnc3c2c1-c1ccc(OC)cc1,active: -106%
5,Cc1ccc(S(=O)(=O)N(C)c2nonc2C)cc1,inconclusive: -32.8%
6,CN(CC(=O)N1CCN(C2CCCCC2)CC1)S(=O)(=O)c1cccc2nsnc12,inconclusive: -32.5%
7,COc1cc(OC)cc(C(=O)N[C@H](C(=O)OCC(=O)Nc2ccc(C)cc2C)C(C)C)c1,inconclusive: -40.9%
8,COC(=O)CN(Cc1ccccc1)S(=O)(=O)c1ccc(OC)c(OC)c1,inconclusive: -37.7%
9,COc1cccc(C(=O)N/N=C/c2ccc(Oc3ccc([N+](=O)[O-])cn3)c(OC)c2)c1,inconclusive: -39.7%
10,CC(=O)Oc1cccc(N2C(=O)c3ccccc3C2=O)c1,active: -85%
11,CCCc1ccc(-c2cc(NC(=O)CSc3nnc(N)s3)n(-c3ccccc3)n2)cc1,inconclusive: -33.9%
12,COc1ccc(N=C2C(=Nc3ccc(OC)cc3)N(c3ccccc3)C(=S)N2C(=O)c2ccc(Cl)cc2)cc1,active: -100%
13,CCOC(=O)C(NC(=O)c1ccc(F)cc1)(Nc1nnc(C)s1)C(F)(F)F (stereo not drawn),inconclusive: -40.2%
14,COCC(=O)n1cc(C(=O)OC)c2ccccc21,inconclusive: -42.8%
15,NC(=O)CSc1nnc(-c2cc3ccccc3o2)n1Cc1ccccc1,inconclusive: -64.5%
16,O=C(c1ccccc1)n1nnc2ccccc21,inconclusive: -39.3%
17,CC(C)COc1ccc(CSCCNC(=S)Nc2ccccc2)cc1,inactive: 56.1%
18,Cc1nc(C)c(C(=O)C2=C(O)C(=O)N(CCN(C)C)C2c2cccs2)s1 (stereo not drawn),inconclusive: -38.3%
19,COc1ccccc1Nc1ncccc1C(=O)O,active: -100%
20,CC(C)CNC(=O)c1cccc(NC(=O)c2ccc(Cl)c([N+](=O)[O-])c2)c1,active: -88.7%
21,Cc1ccc(C(=O)N/C(=C\c2ccc(F)cc2)C(=O)NCc2ccncc2)cc1,active: -119%
22,CC1CCc2cc(F)ccc2N1C(=O)c1cnc2sccn2c1=O (stereo not drawn),inconclusive: -36.3%
23,NC(=S)N/N=C\c1ccccc1OCc1ccccc1,inconclusive: -54.4%
24,CC1=NN(C(=O)c2ccccc2-n2cccc2)C(O)(C(F)(F)F)C1 (stereo not drawn),inactive: -3.97%

row,Structure (SMILES),"activity change (PNC), negative = inhibition"
1,COc1ccc(C(=O)n2nc(C)c(Br)c2C)cc1,inconclusive: -36.5%
2,CC(=O)Nc1nnc(SCC(=O)NC(C)(C)C)s1,inconclusive: -39.9%
3,Cc1cc(=O)c2c(C)nn(-c3ccccc3)c2[nH]1,inconclusive: -71.5%
4,c1ccc(OCc2nn3c(-c4ccco4)nnc3s2)cc1,inactive: -28.4%
5,c1ccc2c(N3CCOCC3)nc(-c3ccncc3)nc2c1,inconclusive: -67%
6,CCc1ccccc1N(C1=NCCCS1)S(=O)(=O)c1ccc(C(C)(C)C)cc1,inconclusive: -38.5%
7,Cc1ccc(S(=O)(=O)N(C)c2ccc(N)cc2)cc1,inconclusive: -32.8%
8,O=C(NCCc1ccc(Cl)cc1)C1CCN(S(=O)(=O)N2CCCCC2)CC1,inconclusive: -36.7%
9,CCOCCCNC(=O)CCS(=O)(=O)Cc1ccc(C)cc1,inconclusive: -36.2%
10,O=C(O)CSc1ncnc2c1oc1ccccc12,inactive: -11%
11,COCCNC(=O)/C(C#N)=C/c1c(N2CC(C)OC(C)C2)nc2ccccn2c1=O (stereo not drawn),inactive: -29.9%
12,CN(CCOC(=O)c1ccc2c(c1)OCCO2)Cc1ccccc1,inactive: -25.3%
13,CCCCc1cc(=O)oc2cc(OS(C)(=O)=O)ccc12,inconclusive: -50.5%
14,Cc1cccc(N2CCc3c2nc2ccc(Br)cc2c3N)c1,inconclusive: -51%
15,C#CCNc1cc(C)nc2ncnn12,inactive: 7.13%
16,Cc1c(C(=O)NCCSCc2ccco2)cccc1[N+](=O)[O-],inactive: -20.3%
17,COc1cccc(C2NC(=O)NC(C)=C2C(=O)Nc2ccc(C)cc2)c1 (stereo not drawn),inconclusive: -37.2%
18,COc1ccccc1CNC(=O)C(C)NS(=O)(=O)c1ccc(Br)cc1 (stereo not drawn),inactive: 11.4%
19,CC1=C(C(=O)Nc2ccccc2)C(c2cccs2)C(C#N)=C(SCC#N)N1 (stereo not drawn),active: -107%
20,O=C(CNC(=O)C1CCCCC1)OCc1cc(=O)oc2ccc3ccccc3c12,inactive: 4.24%
21,CC1(C)Cc2c(c(-c3ccco3)[nH]c(=O)c2C#N)CS1,inactive: -21.3%
22,COc1ccccc1/C=C/C=N/NC(=O)c1ccncc1,inactive: -17.6%
23,Cc1ccc(C(=O)O/N=C(\N)c2cccc([N+](=O)[O-])c2)cc1,inconclusive: -62.1%
24,CC(C)c1ccc(C(=O)NCCCN(C)C)cc1,inconclusive: -69.5%

row,Structure (SMILES),"activity change (PNC), negative = inhibition"
1,Nc1nonc1-n1nnc(C(=O)O)c1-c1cccs1,inactive: 10.4%
2,O=C(NNC(=S)NC(=O)c1ccccc1[N+](=O)[O-])c1ccccc1[N+](=O)[O-],inactive: 42.5%
3,O=S(=O)(N1CCOCC1)N1CCN(c2ccccc2F)CC1,inconclusive: -65.2%
4,COc1ccc(NC(=O)CCC(=O)OCc2ccc(Br)cc2)cc1,inactive: 61.7%
5,COc1cc(NC(=S)Nc2cccnc2)cc(OC)c1,inconclusive: -32.4%
6,N#CC1=C(N)C(C#N)(C#N)[C@H](c2cccnc2)[C@H]2CN(C(=O)OCc3ccccc3)CC=C12,inconclusive: -45.5%
7,O=C1Cc2ccccc2Sc2ccc(O)cc21,inconclusive: -44.9%
8,CCN1CCN(C(c2cc(OC)ccc2OC)c2nnnn2Cc2ccccc2)CC1 (stereo not drawn),inconclusive: -41.4%
9,Cn1c(=O)c2c(nc(CN3CCN(c4ccccc4)CC3)n2Cc2ccccc2F)n(C)c1=O,inconclusive: -67.3%
10,CCN(CC)CCc1c(C)[nH]c(C(=O)OCc2ccccc2)c1C,inconclusive: -34.4%
11,COCCNC(=O)C(c1ccc(C)o1)N(C(=O)c1snc(C(N)=O)c1N)c1ccc(C)c(C)c1 (stereo not drawn),inconclusive: -55.6%
12,CCOc1cc2c3c(c1)C1(C(=O)N3C(C)(C)C=C2C)C(C#N)=C(N)Oc2cc(O)ccc21 (stereo not drawn),inconclusive: -30.2%
13,Nc1cc(Cl)c(N)cc1Cl,inconclusive: -34.1%
14,Cc1ccccc1NC(=O)/C(C#N)=C\c1cccnc1,active: -81.8%
15,COc1ccc(-c2nsc(SCC(=O)Nc3ccc4c(c3)OCO4)n2)cc1,inactive: 2.43%
16,NC(=O)C1(N2CCCCC2)CCN(Cc2nc3ccccc3c(=O)[nH]2)CC1,inconclusive: -51.2%
17,CCn1c(COc2ccccc2)nnc1SCC(=O)Nc1ccc2c(c1)OCCO2,inconclusive: -50.9%
18,COc1cc(NC(=O)c2ccccc2)cc(OC)c1,inconclusive: -42.6%
19,Cc1cc(N2CCCC2)nc(-c2ccccc2O)n1,inconclusive: -40.5%
20,COc1ccc(OC)c(Nc2nc3nonc3nc2N2CCCCC2)c1,inconclusive: -50.6%
21,COc1cccc(/C=N/NC(=O)CCc2n[nH]c(=O)[nH]c2=O)c1O,inactive: -12.9%
22,COc1ccc(CCN(C)CCC(=O)Nc2cc(C)ccc2C)cc1OC,inactive: -10.3%
23,Nn1c(SCc2csc(-c3ccccc3)n2)nnc1-c1cccs1,inconclusive: -59.6%
24,CCOCCc1c(O)nc(SCC(=O)NCc2ccco2)[nH]c1=O,inconclusive: -42.6%

# Of the compounds above, these contain fluorine.
row,Structure (SMILES),"activity change (PNC), negative = inhibition"
1,COc1ccc(S(=O)(=O)N(C)CC(=O)Nc2c(F)cccc2F)cc1,active: -103%
2,CNC(=O)N(C1=NCC(C)(C)S1)c1ccc(F)c(Cl)c1,inactive: -9.55%
13,CCOC(=O)C(NC(=O)c1ccc(F)cc1)(Nc1nnc(C)s1)C(F)(F)F (stereo not drawn),inconclusive: -40.2%
21,Cc1ccc(C(=O)N/C(=C\c2ccc(F)cc2)C(=O)NCc2ccncc2)cc1,active: -119%
22,CC1CCc2cc(F)ccc2N1C(=O)c1cnc2sccn2c1=O (stereo not drawn),inconclusive: -36.3%
24,CC1=NN(C(=O)c2ccccc2-n2cccc2)C(O)(C(F)(F)F)C1 (stereo not drawn),inactive: -3.97%
3,O=S(=O)(N1CCOCC1)N1CCN(c2ccccc2F)CC1,inconclusive: -65.2%
9,Cn1c(=O)c2c(nc(CN3CCN(c4ccccc4)CC3)n2Cc2ccccc2F)n(C)c1=O,inconclusive: -67.3%

# Continuation.

row,Structure (SMILES),"activity change (PNC), negative = inhibition"
1,Clc1nc(-c2n[nH]nc2Cl)n[nH]1,inconclusive: -48%
2,COc1ccc(NC(=O)CCS(=O)(=O)c2ccc3c(c2)CCCN3C(C)=O)cc1,inactive: 94.2%
3,Oc1oc(-c2ccccc2)nc1C=Nc1ccccc1,inactive: 9.92%
4,Cc1cccc(-c2nc(CS(=O)CC(=O)N3CCCCC3)c(C)o2)c1 (stereo not drawn),inactive: 24.5%
5,O=C(NC1CCCC1)C1CCN(S(=O)(=O)N2CCCCC2)CC1,inconclusive: -62.2%
6,COc1ccc(/C=N/NC(=S)Nc2ccccc2[N+](=O)[O-])cc1O,active: -117%
7,COC(=O)C1=C(C)NC(=O)CC1c1cc(Br)ccc1F (stereo not drawn),inconclusive: -68.4%
8,O=C(Nc1cccnc1)c1c(F)c(F)c(F)c(F)c1F,active: -107%
9,O=C(NCCc1ccccc1)C(c1cccs1)N(C(=O)CCl)c1ccc(Cl)cc1 (stereo not drawn),inconclusive: -46.2%
10,O=C(Nc1ccc(N2CCCCC2)c(C(=O)O)c1)c1ccco1,inconclusive: -38.3%
11,CCCCNC(=S)N/N=C/c1ccccc1F,inconclusive: -60.2%
12,Cc1cc(C(=O)COc2cccc3cccnc23)c(C)n1C,inconclusive: -78.9%
13,Cc1cccc(NC(=S)N/N=C/c2c[nH]c3ccccc23)c1,active: -82.3%
14,CCn1c(/N=C/c2c[nH]c3ccccc23)nc2ccccc21,inconclusive: -36%
15,Cc1cccc(C(=O)N2CC3(C)CC2CC(C)(C)C3)c1 (stereo not drawn),inconclusive: -40.3%
16,COc1ccccc1NC(=O)Cn1c(CN2CCCCC2)nc2ccccc2c1=O,inconclusive: -36.9%
17,CCc1nnc(NC(=O)CSc2nnc(-c3ccoc3C)n2-c2cccc(C)c2)s1,active: -95.8%
18,CC(C)C(c1nnnn1CCc1ccccc1)N1CCOCC1 (stereo not drawn),inconclusive: -48.9%
19,Cc1ccc(C)c(NC(=O)CSc2nnc([C@@H]3CCCN3C(=O)OC(C)(C)C)o2)c1,active: -119%
20,CCCCCc1c(C)nc(NCc2ccccc2)[nH]c1=O,inactive: -8.61%
21,CC1=CC(C)(C)N(C(=O)CN2C(=O)c3ccccc3C2=O)c2ccccc21,inactive: -3.15%
